Three substances from paper PMC8031663, “Caveolin‐1‐driven membrane remodelling regulates hnRNPK‐mediated exosomal microRNA sorting in cancer” can be followed below.

Amino acid sequences for entries named in this document (tags omitted).
UniProt P35637: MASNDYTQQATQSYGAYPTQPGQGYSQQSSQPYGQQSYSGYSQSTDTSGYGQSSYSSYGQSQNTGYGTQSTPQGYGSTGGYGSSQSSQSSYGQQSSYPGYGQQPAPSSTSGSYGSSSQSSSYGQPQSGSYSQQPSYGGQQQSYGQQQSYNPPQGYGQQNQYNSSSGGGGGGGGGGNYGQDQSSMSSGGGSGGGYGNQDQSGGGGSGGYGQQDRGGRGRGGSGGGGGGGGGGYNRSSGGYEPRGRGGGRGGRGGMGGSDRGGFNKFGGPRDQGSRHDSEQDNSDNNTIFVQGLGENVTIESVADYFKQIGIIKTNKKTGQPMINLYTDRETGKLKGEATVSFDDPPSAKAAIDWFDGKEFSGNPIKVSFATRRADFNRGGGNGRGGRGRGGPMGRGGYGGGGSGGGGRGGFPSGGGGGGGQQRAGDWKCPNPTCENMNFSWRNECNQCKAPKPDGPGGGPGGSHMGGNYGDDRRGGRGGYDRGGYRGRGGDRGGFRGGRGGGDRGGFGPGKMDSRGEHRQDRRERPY
UniProt Q03135: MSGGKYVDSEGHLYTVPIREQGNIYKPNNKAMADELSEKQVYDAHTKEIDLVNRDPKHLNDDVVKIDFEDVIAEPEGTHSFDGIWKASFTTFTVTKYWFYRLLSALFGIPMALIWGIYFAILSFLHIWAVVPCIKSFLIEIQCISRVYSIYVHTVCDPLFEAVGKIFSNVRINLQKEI

These are yes or no findings as the source states them, for the method shown. Binding seen in cells or lysates may run through a third protein. Some binding calls cover weakened binding; strength is not graded here.

For this assay, the target named is heterogeneous nuclear ribonucleoprotein K (human (endogenous in PC3)) (UniProt P61978). The experiment in a line: co-IP; hnRNPK co-immunoprecipitation from PC3-CONT and PC3-CAVIN1 whole cell lysates with Pierce magnetic Protein A/G beads; eluent blotted; non-targeting IgG as negative control.

In the case of FUS (from UniProt P35637 1-526), the binding result is given as “binds”. Under YB1 (from UniProt P67809 1-324) stands “binds”; under caveolin-1 (from UniProt Q03135 1-178), “no binding”.
